54 compounds from the supplement of paper PMC8732350 can be followed below.

Where a name gives a salt, the structure may show the parent alone. ± gives the standard deviation of the averaged measurements. This is one part of the list. Repeats in this data set agree poorly, so a single value says little.

In this test the test system is A549. Put plainly: surface PD-L1 immunofluorescence intensity relative to IFN-gamma-only control (ratio); higher = more PD-L1 expression. The note with it: 10 µM; exposure time 24 h; IFN-gamma 100 ng/mL.
In the case of `Cc1cc(SCc2sc(-c3ccc(C(F)(F)F)c(F)c3)nc2C)ccc1OCC(=O)O`, the “surface PD-L1 immunofluorescence intensity” value came to 1.01.

Take `Cc1[nH]c2ccc(Cl)cc2c1C1=CCNCC1`: the “surface PD-L1 immunofluorescence intensity” value was determined as 0.86.

For `NC(=O)C[S+]([O-])C(c1ccccc1)c1ccccc1` (centres undefined) [Modafinil], the “surface PD-L1 immunofluorescence intensity” value was found to be 0.997.

In the case of `CC(C)(C)[C@]1(O)CC2OC(=O)CC23C(=O)OC2OC(=O)[C@H](O)C231` (some centres undefined) [Bilobalide], the “surface PD-L1 immunofluorescence intensity” value turned out to be 1.02.

Consider `O=C(O[C@H]1C[N+]2(CCCOc3ccccc3)CCC1CC2)C(O)(c1cccs1)c1cccs1` [Aclidinium Bromide], for which the “surface PD-L1 immunofluorescence intensity” value was determined as 0.876.

As to `Clc1ccccc1C(c1ccccc1)(c1ccccc1)n1cccn1`, the “surface PD-L1 immunofluorescence intensity” value was 1.05.

As for `CC(=O)NC1CCSC1=O` (racemic) [N-Acetyl-DL-homocysteine Thiolactone], the “surface PD-L1 immunofluorescence intensity” value was found to be 0.968.

With `CC(Cc1ccccc1)NCCC(c1ccccc1)c1ccccc1` (centres undefined) [Prenylamine lactate], the “surface PD-L1 immunofluorescence intensity” value worked out at 1.

For `CN(C(=O)Cc1ccccc1)C(CN1CCCC1)c1ccccc1` (centres undefined) [N-MPPP Hydrochloride], the “surface PD-L1 immunofluorescence intensity” value was found to be 0.926.

As for `CN1CCN(C(=O)OC2c3nccnc3C(=O)N2c2ccc(Cl)cn2)CC1` (centres undefined) [Zopiclone], the “surface PD-L1 immunofluorescence intensity” value amounted to 1.1.

On to `Clc1ccc(C(OCCN2CCCCC2)c2ccccc2)cc1` (centres undefined) [Cloperastine hydrochloride], for which the “surface PD-L1 immunofluorescence intensity” value amounted to 0.95.

Turning to `COc1cc2c(cc1OC)C1CC(=O)C(CC(C)C)CN1CC2` (centres undefined) [Tetrabenazine], the “surface PD-L1 immunofluorescence intensity” value stood at 0.987.

Consider `CCNC(=O)[C@H]1O[C@@H](n2cnc3c(N)ncnc32)[C@H](O)[C@@H]1O`, for which the “surface PD-L1 immunofluorescence intensity” value turned out to be 0.962.

As to `CCCCC/C=C\C/C=C\C/C=C\C/C=C\CCCC(=O)Nc1ccc(O)cc1`, the “surface PD-L1 immunofluorescence intensity” value was determined as 1.1.

In the case of `Cc1cccc(C)c1NC1=NCCCS1` [Xylazine], the “surface PD-L1 immunofluorescence intensity” value stood at 1.06.

As to `O=C(Oc1ccc([N+](=O)[O-])cc1)N1CCC(C(O)(c2ccc3c(c2)OCO3)c2ccc3c(c2)OCO3)CC1`, the “surface PD-L1 immunofluorescence intensity” value came out at 1.05.

As for `CCN(CC)CCO[C@H]1CC[C@@]2(C)C(=CC[C@@H]3[C@@H]2CC[C@]2(C)C(=O)CC[C@@H]32)C1`, the “surface PD-L1 immunofluorescence intensity” value worked out at 1.

Regarding `CN1C(=O)COc2c(C(=O)NC3CN4CCC3CC4)cc(Cl)cc21` (centres undefined), the “surface PD-L1 immunofluorescence intensity” value came to 1.06.

With `C[C@H](N)Cn1ccc2cc(F)c(Cl)cc21` [Ro 60-0175 fumarate], the “surface PD-L1 immunofluorescence intensity” value turned out to be 1.03.

Regarding `NC(=O)CN1CCCC1=O` [Piracetam], the “surface PD-L1 immunofluorescence intensity” value is 0.899.

`COc1cc2c(cc1OC)C(C)NCC2` (centres undefined): the “surface PD-L1 immunofluorescence intensity” value is 0.938.

As to `NCc1cc(O)no1` [Muscimol], the “surface PD-L1 immunofluorescence intensity” value stood at 1.02.

With `CC(C)c1c(CN(C)C(C)Cc2ccccc2)n(C)n(-c2ccccc2)c1=O` (centres undefined) [Famprofazone], the “surface PD-L1 immunofluorescence intensity” value was 1.02.

On to `C=C(C)[C@@H]1[C@H]2OC(=O)[C@@H]1[C@]1(O)C[C@H]3O[C@]34C(=O)O[C@H]2[C@]14C` [Picrotoxinin], for which the “surface PD-L1 immunofluorescence intensity” value was determined as 0.931.

As for `Oc1ccc2c3c1O[C@H]1c4oc5ccccc5c4C[C@@]4(O)[C@@H](C2)N(CC2CC2)CC[C@]314` [Naltriben mesylate], the “surface PD-L1 immunofluorescence intensity” value was 1.03.

As for `O=P1(NCCCl)OCCCN1CCCl` (centres undefined) [Ifosfamide], the “surface PD-L1 immunofluorescence intensity” value was found to be 1.

Regarding `COc1ccc(C(=O)c2c(C)n(CCN3CCOCC3)c3cc(I)ccc23)cc1`, the “surface PD-L1 immunofluorescence intensity” value turned out to be 1.06.

Take `C[C@@]12N[C@@H](Cc3ccccc31)c1ccccc12` [(-)-MK 801 hydrogen maleate]: the “surface PD-L1 immunofluorescence intensity” value turned out to be 1.02.

Consider `C[C@@]12N[C@@H](Cc3ccccc31)c1ccccc12` [(-)-MK 801 maleate], for which the “surface PD-L1 immunofluorescence intensity” value worked out at 0.971.

Turning to `C[N+]12CCC(CC1)C(OC(=O)C(O)(c1ccccc1)c1ccccc1)C2` (centres undefined) [Clidinium bromide], the “surface PD-L1 immunofluorescence intensity” value was found to be 1.01.

On to `CC(=O)OCC1=C(C(=O)O)N2C(=O)[C@@H](N)[C@H]2SC1` [7-Aminocephalosporanic acid], for which the “surface PD-L1 immunofluorescence intensity” value is 0.943.

Take `CC(=O)OCC1=C(C(=O)O)N2C(=O)[C@@H](N)[C@H]2SC1` [Cephalosporanic acid, 7-amino]: the “surface PD-L1 immunofluorescence intensity” value amounted to 0.985.

With `CO[C@]12C[C@@H](COC(=O)c3cncc(Br)c3)CN(C)[C@@H]1Cc1cn(C)c3cccc2c13` [Nicergoline], the “surface PD-L1 immunofluorescence intensity” value came to 0.977 ± 0.067.

As for `Cc1cccc([C@H](C)c2c[nH]cn2)c1C` [Dexmedetomidine HCl (Precedex)], the “surface PD-L1 immunofluorescence intensity” value came out at 1.05.

As to `CCCN(CCC)[C@@H]1CCc2c(OC)cccc2[C@@H]1C` [(+)-UH 232 maleate], the “surface PD-L1 immunofluorescence intensity” value is 0.975.

Turning to `CC(C)(C)NCC(O)c1ccccc1Cl` (centres undefined) [Tulobuterol], the “surface PD-L1 immunofluorescence intensity” value was determined as 1.02.

As to `C[C@]12Cc3c[nH]nc3C[C@@H]1CC[C@@H]1[C@@H]2CC[C@@]2(C)[C@H]1CC[C@]2(C)O` [Stanozolol], the “surface PD-L1 immunofluorescence intensity” value worked out at 1.02.

Turning to `Cc1nnc2ccc(-c3cccc(C(F)(F)F)c3)nn12`, the “surface PD-L1 immunofluorescence intensity” value was 1.05.

For `C#C[C@]1(O)C=C[C@H]2[C@@H]3CCC4=CC(=O)CC[C@@H]4[C@H]3CC[C@@]21CC` [Gestodene], the “surface PD-L1 immunofluorescence intensity” value was determined as 0.981.

For `C[C@@H]1CC[C@H]2[C@@H](C)C(=O)O[C@@H]3O[C@@]4(C)CC[C@@H]1[C@]32OO4` [Artemisinin], the “surface PD-L1 immunofluorescence intensity” value was determined as 0.965 ± 0.064.

For the compound `CCC1(c2cccc(O)c2)CCCCN(C)C1` (centres undefined) [Meptazinol hydrochloride], the “surface PD-L1 immunofluorescence intensity” value is 0.928.

In the case of `CCNC1(c2cccs2)CCCCC1=O` (centres undefined) [Tiletamine hydrochloride], the “surface PD-L1 immunofluorescence intensity” value is 0.953.

Take `O=C1Nc2cc(Cl)c(Cl)cc2N2CCNCC12` (centres undefined): the “surface PD-L1 immunofluorescence intensity” value turned out to be 1.01.

For `COc1ccc(C(=O)O[C@H]2CC[C@@]3(C)[C@@H]4CC[C@H]5[C@]6(O)C[C@H](O)[C@@]7(O)[C@@H](CN8C[C@@H](C)CC[C@H]8[C@@]7(C)O)[C@]6(O)C[C@@]53O[C@]24O)cc1OC` [Veratridine], the “surface PD-L1 immunofluorescence intensity” value turned out to be 0.835.

Regarding `CC(C)(C)NCC(O)COc1cccc2[nH]c(C#N)cc12` (centres undefined) [Cyanopindolol hemifumarate], the “surface PD-L1 immunofluorescence intensity” value was determined as 1.06.

Turning to `CCC(COC(=O)c1cc(OC)c(OC)c(OC)c1)(c1ccccc1)N(C)C` (centres undefined) [Trimebutine], the “surface PD-L1 immunofluorescence intensity” value is 1.02.

Take `NCCc1c[nH]c2ccc(O)cc12` [Serotonin]: the “surface PD-L1 immunofluorescence intensity” value amounted to 0.96.

With `NCCc1c[nH]c2ccc(O)cc12` [Serotonin hydrochloride], the “surface PD-L1 immunofluorescence intensity” value came out at 1.01.

As for `CCN(C(C)=O)c1cccc(-c2ccnc3c(C#N)cnn23)c1` [Zaleplon], the “surface PD-L1 immunofluorescence intensity” value was 1.05.

As for `CCC1(CC)C(=O)C=CNC1=O` [Pyrithyldione], the “surface PD-L1 immunofluorescence intensity” value is 0.949.

Regarding `CCCOc1ccc2[nH]cc(C3=CCNCC3)c2n1`, the “surface PD-L1 immunofluorescence intensity” value was 1.02.

As to `COc1ccc(Cc2nccc3cc(OC)c(OC)cc23)cc1OC` [Papaverine hydrochloride], the “surface PD-L1 immunofluorescence intensity” value was found to be 0.93.

Take `O=C1CSC(c2ccccc2Cl)c2cc(Cl)ccc2N1` (centres undefined): the “surface PD-L1 immunofluorescence intensity” value was 1.01.

In the case of `C[C@]12CC[C@H]3[C@@H](CC[C@@]45O[C@@H]4C(O)=C(C#N)C[C@]35C)[C@@H]1CC[C@@H]2O` [Trilostane], the “surface PD-L1 immunofluorescence intensity” value is 1.03.
